Results: paper doi:10.1101/2025.03.28.645892
These are yes or no findings as the source states them, for the method shown. Some entries that bind do so weakly or less than the wild type.

Amino acid sequences for entries named in this document (tags omitted). A change or cut given only in a name is not applied to a line headed by its entry.
UniProt P54609: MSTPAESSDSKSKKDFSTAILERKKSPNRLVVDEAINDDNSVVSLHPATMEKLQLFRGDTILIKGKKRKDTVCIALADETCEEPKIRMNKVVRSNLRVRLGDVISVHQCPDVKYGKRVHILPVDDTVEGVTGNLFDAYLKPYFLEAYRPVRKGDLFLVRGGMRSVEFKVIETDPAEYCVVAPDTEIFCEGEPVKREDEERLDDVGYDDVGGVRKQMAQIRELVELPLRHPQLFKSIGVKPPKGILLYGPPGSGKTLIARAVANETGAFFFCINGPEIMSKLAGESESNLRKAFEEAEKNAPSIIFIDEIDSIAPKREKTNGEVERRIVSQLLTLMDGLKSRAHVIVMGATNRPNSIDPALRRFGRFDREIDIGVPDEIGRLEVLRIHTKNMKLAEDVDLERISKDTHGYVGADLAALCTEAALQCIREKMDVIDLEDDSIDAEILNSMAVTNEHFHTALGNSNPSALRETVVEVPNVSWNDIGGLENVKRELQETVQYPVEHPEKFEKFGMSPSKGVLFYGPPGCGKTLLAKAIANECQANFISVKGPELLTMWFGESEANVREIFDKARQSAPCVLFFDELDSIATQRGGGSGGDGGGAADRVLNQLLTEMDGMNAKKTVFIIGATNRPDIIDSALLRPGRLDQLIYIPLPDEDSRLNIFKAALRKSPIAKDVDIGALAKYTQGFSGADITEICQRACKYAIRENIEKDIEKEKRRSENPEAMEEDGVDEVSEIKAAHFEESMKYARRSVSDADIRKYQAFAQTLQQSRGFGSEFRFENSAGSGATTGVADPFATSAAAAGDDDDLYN

Assays:
[1] = target: T1, Arabidopsis thaliana NPL4 (Arabidopsis thaliana) (UniProt O82264); assay: SEC-MALS
T1 sequence (chain, Alexa-488 dye label in the MST experiments only): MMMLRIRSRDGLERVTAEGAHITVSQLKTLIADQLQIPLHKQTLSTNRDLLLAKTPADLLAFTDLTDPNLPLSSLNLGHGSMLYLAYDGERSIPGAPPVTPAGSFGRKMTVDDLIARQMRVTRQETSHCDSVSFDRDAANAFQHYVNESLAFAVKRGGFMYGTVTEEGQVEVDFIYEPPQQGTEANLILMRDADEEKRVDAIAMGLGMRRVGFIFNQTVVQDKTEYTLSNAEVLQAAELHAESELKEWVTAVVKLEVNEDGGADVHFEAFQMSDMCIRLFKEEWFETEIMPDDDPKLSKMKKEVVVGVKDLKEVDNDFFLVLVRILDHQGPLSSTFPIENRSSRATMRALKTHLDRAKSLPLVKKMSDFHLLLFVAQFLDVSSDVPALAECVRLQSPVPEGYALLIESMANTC

[2] = target: T2, AtCDC48A saturated with AtNPL4 (Arabidopsis thaliana) (UniProt P54609+O82264); assay: MST
[3] = target: T1, Arabidopsis thaliana NPL4 (Arabidopsis thaliana); assay: MST
[4] = target: T1, Arabidopsis thaliana NPL4 (Arabidopsis thaliana); assay: SEC-MALS; remark: listed apart in the source
[5] = target: T1, Arabidopsis thaliana NPL4 (Arabidopsis thaliana); assay: MST; remark: listed apart in the source
[6] = target: T2, AtCDC48A saturated with AtNPL4 (Arabidopsis thaliana); assay: ITC

binding [1]: no binding | binding [2]: binds | binding [3]: no binding (tested: Kd > 200 µM) | binding [4]: no binding | binding [5]: no binding | binding [6]: binds
B1: Arabidopsis thaliana UFD1B (protein, UniProt Q9SJV0 1-340)
chain: MVLRFCCHLLTYSVSLLPPITMFFDGYHYHGTTFEQSYRCYPASFIDKPQLESGDKIIMPPSALDRLASLHIDYPMLFELRNAGIERVTHCGVLEFIAEEGMIYMPYWMMQNLLLQEGDIVRVRNVTLPKGTYVKLQPHTTDFLDISNPKAILETALRNYSCLTSGDSIMVPYNNKKYFIDIVETKPANAISIIETDCEVDFAPPLDYKEPERPTAPSAAKGPAKAEEVVDEPEPKFNPFTGSGRRLDGRPLAYEPAPASSSKGKQPVVANGNGQSSVASSSEKATRAQGKLVFGANGNRAPKEAAPKVGAAKETKKEEQEKKDEPKFQAFSGKKYSLRG
